Common to all, as to assay: co-IP
Experiment [1] deals with T1, NADPH oxidase-4 (NOX4), endogenous in McArdle hepatocytes (rat (endogenous in McArdle 7777 hepatoma cells)) (UniProt Q924V1).
T1 sequence: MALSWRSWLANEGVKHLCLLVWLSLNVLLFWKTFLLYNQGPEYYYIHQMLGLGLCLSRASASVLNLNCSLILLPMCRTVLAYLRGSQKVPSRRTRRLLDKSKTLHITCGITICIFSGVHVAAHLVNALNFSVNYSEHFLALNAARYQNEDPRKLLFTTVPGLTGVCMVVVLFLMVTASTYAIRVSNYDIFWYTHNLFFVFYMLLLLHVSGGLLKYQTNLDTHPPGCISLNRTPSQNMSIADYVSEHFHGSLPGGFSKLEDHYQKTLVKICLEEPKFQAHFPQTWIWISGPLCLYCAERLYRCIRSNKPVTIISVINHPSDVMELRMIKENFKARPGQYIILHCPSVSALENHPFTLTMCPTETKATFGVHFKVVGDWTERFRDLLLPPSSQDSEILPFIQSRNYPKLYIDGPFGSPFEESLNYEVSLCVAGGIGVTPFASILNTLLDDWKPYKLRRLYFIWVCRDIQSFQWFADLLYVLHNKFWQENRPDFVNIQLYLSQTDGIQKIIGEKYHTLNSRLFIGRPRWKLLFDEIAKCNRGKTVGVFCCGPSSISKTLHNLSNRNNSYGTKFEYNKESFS

Protein sequences, listed by entry. Tags and fused reporters are not part of them.
UniProt P07632: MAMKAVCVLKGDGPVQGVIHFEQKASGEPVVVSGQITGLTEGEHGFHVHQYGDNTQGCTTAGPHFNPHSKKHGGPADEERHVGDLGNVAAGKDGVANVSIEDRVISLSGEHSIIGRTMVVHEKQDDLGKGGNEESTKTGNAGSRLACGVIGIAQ
UniProt O54857: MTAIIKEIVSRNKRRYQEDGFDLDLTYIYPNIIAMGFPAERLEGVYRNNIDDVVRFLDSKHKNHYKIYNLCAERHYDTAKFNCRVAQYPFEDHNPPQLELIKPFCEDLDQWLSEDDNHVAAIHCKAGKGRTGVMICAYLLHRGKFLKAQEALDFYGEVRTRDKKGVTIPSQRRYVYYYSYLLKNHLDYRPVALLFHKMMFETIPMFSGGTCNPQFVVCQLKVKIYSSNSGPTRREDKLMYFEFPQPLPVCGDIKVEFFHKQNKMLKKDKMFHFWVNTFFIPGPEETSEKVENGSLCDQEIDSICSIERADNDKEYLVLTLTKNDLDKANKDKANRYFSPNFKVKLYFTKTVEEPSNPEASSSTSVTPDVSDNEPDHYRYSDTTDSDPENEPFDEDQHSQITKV

Experiment [2] addresses T2, aquaporin-3 (AQP3), endogenous in McArdle hepatocytes (rat (endogenous in McArdle 7777 hepatoma cells)) (UniProt P47862).
T2 sequence: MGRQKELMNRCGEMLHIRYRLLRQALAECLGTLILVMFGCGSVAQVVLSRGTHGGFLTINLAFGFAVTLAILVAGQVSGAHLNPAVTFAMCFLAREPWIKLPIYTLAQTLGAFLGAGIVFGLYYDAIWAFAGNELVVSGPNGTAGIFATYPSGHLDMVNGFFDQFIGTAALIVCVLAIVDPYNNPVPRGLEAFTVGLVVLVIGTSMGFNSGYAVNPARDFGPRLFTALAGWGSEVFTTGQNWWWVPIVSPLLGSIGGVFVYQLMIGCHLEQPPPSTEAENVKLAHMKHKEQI

Experiment [3] deals with T1, NADPH oxidase-4 (NOX4), endogenous in McArdle hepatocytes (rat (endogenous in McArdle 7777 hepatoma cells)). This is another data set of the same source.
The target in experiment [4] is T3, wild-type human NOX4 with C-terminal Flag epitope tag (wt-NOX4-Flag) (human) (UniProt Q9NPH5).
T3 sequence: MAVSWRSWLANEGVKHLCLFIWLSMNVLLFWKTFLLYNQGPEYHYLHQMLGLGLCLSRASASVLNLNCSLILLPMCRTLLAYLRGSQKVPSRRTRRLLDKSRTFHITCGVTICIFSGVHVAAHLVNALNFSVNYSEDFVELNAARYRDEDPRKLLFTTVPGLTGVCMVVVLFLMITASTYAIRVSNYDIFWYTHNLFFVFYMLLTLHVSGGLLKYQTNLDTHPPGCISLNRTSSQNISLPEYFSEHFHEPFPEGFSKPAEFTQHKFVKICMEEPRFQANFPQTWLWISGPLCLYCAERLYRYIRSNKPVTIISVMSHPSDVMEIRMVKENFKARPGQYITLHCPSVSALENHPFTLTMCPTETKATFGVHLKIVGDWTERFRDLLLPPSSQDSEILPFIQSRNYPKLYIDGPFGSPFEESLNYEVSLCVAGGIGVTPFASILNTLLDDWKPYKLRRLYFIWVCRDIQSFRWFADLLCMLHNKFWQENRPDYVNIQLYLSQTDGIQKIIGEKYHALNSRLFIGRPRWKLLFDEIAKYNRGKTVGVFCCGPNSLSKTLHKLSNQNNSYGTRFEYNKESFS

Read-outs that look alike come from different tables or passages of the source. Results are given in words; binding and its absence hold for the method and conditions named. Binding seen in cells or lysates may run through a third protein. Some binding calls cover weakened binding; strength is not graded here. For some assays here: Tags and fused reporters may be left off the sequences shown.

This note sets out measurements from article doi:10.1101/430637.

Turning to “superoxide dismutase-1 (cytosolic SOD1), endogenous in McArdle hepatocytes (from UniProt P07632 1-154) (enzyme)”, the binding entry in experiment [1] is “no binding”.
For the molecule “PTEN, endogenous in McArdle hepatocytes (from UniProt O54857 1-403) (enzyme)”, the binding entry in experiment [2] is reported as “binds”.

B1: superoxide dismutase-3 (SOD3, extracellular SOD), endogenous in McArdle hepatocytes (enzyme, UniProt Q08420 16-244)
chain: SVTWTMSDTGESGVDLADRLDLVEKIGDTHSKDLEIWMELGKQREADAREMHAVCRVQPSAMLPPDQPQITGLVLFRQLGPSSRLEASFNLEGFPAEQNTSNHAIHVHEFGDLSQGCESTGPHYNPLGVPHPQHPGDFGNFVVRDGRLWKHRMGLATSLAGPHSILGRAVVVHAGEDDLGKGGNQASVQNGNAGRRLACCVVGTSNSEAWESQTKERKKRRRESECKTT
Consider B1, for which the binding entry in experiment [3] and in experiment [4] was “binds” throughout.

B2: superoxide dismutase-2 (mitochondrial SOD2), endogenous in McArdle hepatocytes (enzyme, UniProt P07895 25-222)
chain: KHSLPDLPYDYGALEPHINAQIMQLHHSKHHATYVNNLNVTEEKYHEALAKGDVTTQVALQPALKFNGGGHINHSIFWTNLSPKGGGEPKGELLEAIKRDFGSFEKFKEKLTAVSVGVQGSGWGWLGFNKEQGRLQIAACSNQDPLQGTTGLIPLLGIDVWEHAYYLQYKNVRPDYLKAIWNVINWENVSQRYIVCKK
On to B2, for which, in experiment [3], the binding entry was “no binding”.
